Here are results for seven molecules from article PMC11641854.

By UniProt entry, the sequences of proteins in these tests, tags left out. Where a name states a change or a piece, a line headed by the entry shows the natural chain unless it says otherwise.
UniProt Q9M2D8: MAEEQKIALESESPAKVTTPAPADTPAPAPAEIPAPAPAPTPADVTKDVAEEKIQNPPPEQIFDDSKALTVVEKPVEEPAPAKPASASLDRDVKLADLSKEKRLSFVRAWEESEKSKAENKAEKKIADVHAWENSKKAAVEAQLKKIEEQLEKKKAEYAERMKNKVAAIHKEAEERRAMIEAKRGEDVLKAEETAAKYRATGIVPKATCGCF
UniProt Q9M8T0: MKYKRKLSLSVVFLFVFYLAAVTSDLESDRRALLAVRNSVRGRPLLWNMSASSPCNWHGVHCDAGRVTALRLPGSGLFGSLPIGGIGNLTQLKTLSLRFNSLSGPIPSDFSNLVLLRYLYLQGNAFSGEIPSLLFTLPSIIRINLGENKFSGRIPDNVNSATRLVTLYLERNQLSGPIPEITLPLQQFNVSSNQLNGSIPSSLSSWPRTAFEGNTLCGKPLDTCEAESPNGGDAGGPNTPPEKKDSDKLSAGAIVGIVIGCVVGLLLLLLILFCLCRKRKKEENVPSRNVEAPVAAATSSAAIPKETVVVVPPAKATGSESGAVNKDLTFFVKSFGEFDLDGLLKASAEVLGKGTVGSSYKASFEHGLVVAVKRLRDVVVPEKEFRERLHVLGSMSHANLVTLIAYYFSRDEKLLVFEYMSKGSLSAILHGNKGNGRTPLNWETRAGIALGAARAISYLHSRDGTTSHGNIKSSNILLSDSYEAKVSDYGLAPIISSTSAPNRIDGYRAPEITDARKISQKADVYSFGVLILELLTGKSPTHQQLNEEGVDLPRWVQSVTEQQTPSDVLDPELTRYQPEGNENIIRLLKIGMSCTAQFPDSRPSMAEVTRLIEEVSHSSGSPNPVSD
UniProt Q9FIJ0: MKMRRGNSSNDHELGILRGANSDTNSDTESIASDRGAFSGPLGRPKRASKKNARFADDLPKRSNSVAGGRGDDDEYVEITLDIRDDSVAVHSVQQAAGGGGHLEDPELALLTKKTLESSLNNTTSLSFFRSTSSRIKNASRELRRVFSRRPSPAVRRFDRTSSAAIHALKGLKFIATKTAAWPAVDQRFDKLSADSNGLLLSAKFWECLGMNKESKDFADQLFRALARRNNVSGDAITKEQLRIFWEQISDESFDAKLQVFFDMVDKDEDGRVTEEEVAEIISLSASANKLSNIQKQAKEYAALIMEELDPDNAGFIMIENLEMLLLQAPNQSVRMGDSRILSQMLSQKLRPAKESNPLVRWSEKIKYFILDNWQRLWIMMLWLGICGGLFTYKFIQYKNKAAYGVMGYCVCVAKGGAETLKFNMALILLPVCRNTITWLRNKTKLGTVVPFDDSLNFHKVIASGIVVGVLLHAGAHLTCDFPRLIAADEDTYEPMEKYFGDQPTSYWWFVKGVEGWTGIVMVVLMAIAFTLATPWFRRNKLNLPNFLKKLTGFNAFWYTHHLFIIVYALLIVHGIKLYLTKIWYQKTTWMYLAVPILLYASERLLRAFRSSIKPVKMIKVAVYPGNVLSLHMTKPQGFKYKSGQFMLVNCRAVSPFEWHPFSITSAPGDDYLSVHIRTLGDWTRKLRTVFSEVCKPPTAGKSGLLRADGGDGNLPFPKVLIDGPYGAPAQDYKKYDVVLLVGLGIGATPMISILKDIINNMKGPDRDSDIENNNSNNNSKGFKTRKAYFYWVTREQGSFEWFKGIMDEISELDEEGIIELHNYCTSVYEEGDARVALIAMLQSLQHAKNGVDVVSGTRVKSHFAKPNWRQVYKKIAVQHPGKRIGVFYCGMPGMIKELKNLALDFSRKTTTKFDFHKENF

The experiment deals with … SENSING 2 fused to GFP (FLS2-GFP) (Arabidopsis thaliana) (UniProt Q9FL28). The experiment is described as follows: affinity purification with mass spectrometry; IP of FLS2-GFP from the Arabidopsis pFLS2:FLS2-GFP line with anti-GFP magnetic beads, LC-MS/MS of the precipitate.

These are yes or no findings as the source states them, for the method shown. In cells and extracts the contact can be indirect. Here binding means that the protein was enriched with, or labelled near, the bait; the list need not be complete. Where a sequence is shown, tags or fusion partners need not be part of it.

For “REMORIN 1.2 (REM1.2), endogenous (from UniProt Q9M2D8)”, the binding entry is given as “binds”.
The result for “QIAN SHOU KINASE 1 (QSK1), endogenous (from UniProt Q9M8T0)” reads “binds”.
Regarding “RESPIRATORY BURST OXIDASE HOMOLOG D (RBOHD), endogenous (from UniProt Q9FIJ0 1-921) (enzyme)”, the binding entry is on record as “binds”.

B1: IMPAIRED OOMYCETE SUSCEPTIBILITY 1 (IOS1), endogenous (protein, UniProt Q9C8I6 24-894)
chain: QDQSGFISLDCGSPRETSFREKTTNITYISDANFINTGVGGSIKQGYRTQFQQQTWNLRSFPQGIRNCYTLNLTIGDEYLIRANFLHGGYDDKPSTQFELYLGPNLWSTVTTTNETEASIFEMIHILTTDRLQICLVKTGNATPFISALELRKLMNTTYLTRQGSLQTFIRADVGATVNQGYRYGIDVFDRVWTPYNFGNWSQISTNQSVNINNDYQPPEIAMVTASVPTDPDAAMNISLVGVERTVQFYVFMHFAEIQELKSNDTREFNIMYNNKHIYGPFRPLNFTTSSVFTPTEVVADANGQYIFSLQRTGNSTLPPLLNAMEIYSVNLLPQQETDRKEVDAMMNIKSAYGVNKIDWEGDPCVPLDYKWSGVNCTYVDNETPKIISLDLSTSGLTGEILEFISDLTSLEVLDLSNNSLTGSVPEFLANMETLKLINLSGNELNGSIPATLLDKERRGSITLSIEGNTGLCSSTSCATTKKKKKNTVIAPVAASLVSVFLIGAGIVTFLILKRKKRTKLGLNPNSGTGTTPLHSRSHHGFEPPVIAKNRKLTYIDVVKITNNFERVLGRGGFGVVYYGVLNNEPVAVKMLTESTALGYKQFKAEVELLLRVHHKDLTCLVGYCEEGDKMSLIYEFMANGDLKEHLSGKRGPSILTWEGRLRIAAESAQGLEYLHNGCKPQIVHRDIKTTNILLNEKFQAKLADFGLSRSFPLGTETHVSTIVAGTPGYLDPEYYRTNWLTEKSDVFSFGVVLLELVTNQPVIDMKREKSHIAEWVGLMLSRGDINSIVDPKLQGDFDPNTIWKVVETAMTCLNPSSSRRPTMTQVVMDLKECLNMEMARNMGSRMTDSTNDSSIELSMNFTTELNPGAR
On to B1, for which the binding entry is “binds”.

B2: … INDUCED REACTION 4 (HIR4), endogenous (protein, UniProt Q9FHM7 1-292)
chain: MGNTYCILGGCIEQASVGVVERWGRFEHIAEPGCHFFNPLAGQWLAGVLSTRIKSLDVKIETKTKDNVFVQLVCSIQYRVVKASADDAFYELQNPKEQIQAYVFDVVRALVPMMTLDALFEQKGEVAKSVLEELEKVMGAYGYSIEHILMVDIIPDPSVRKAMNEINAAQRLQLASVYKGEAEKILQVKRAEAEAEAKYLGGVGVARQRQAITDGLRENILNFSDKVEGTSAKEVMDLIMITQYFDTIRDLGNSSKNTTVFLPHGPGHVRDISDQIRNGMMEAAASTQVNDV
On to B2, for which the binding entry is listed as “binds”.

B3: SYNTAXIN OF PLANTS 71 (SYP71), endogenous (protein, UniProt Q9SF29 1-266)
chain: MTVIDILTRVDSICKKYDKYDVDKQREANISGDDAFARLYGAFETQIETALEKAELVTKEKNRAAAVAMNAEIRRTKARLSEEVPKLQRLAVKRVKGLTTEELAARNDLVLALPARIEAIPDGTAGGPKSTSAWTPSSTTSRPDIKFDSDGRFDDDYFQESNESSQFRQEYEMRKIKQEQGLDMISEGLDALKNMASDMNEELDRQVPLMDEIDTKVDRATSDLKNTNVRLKDTVNQLRSSRNFCIDIVLLCIVLGIAAYLYNVLK
In the case of B3, the binding result is “binds”.

B4: AUTOINHIBITED Ca2+-ATPASE 10 (ACA10), endogenous (protein, UniProt Q9SZR1 1-1069)
chain: MSGQFNNSPRGEDKDVEAGTSSFTEYEDSPFDIASTKNAPVERLRRWRQAALVLNASRRFRYTLDLKREEDKKQMLRKMRAHAQAIRAAHLFKAAASRVTGIASPLPTPGGGDFGIGQEQIVSISRDQNIGALQELGGVRGLSDLLKTNLEKGIHGDDDDILKRKSAFGSNTYPQKKGRSFWRFVWEASQDLTLIILIVAAVASLALGIKTEGIEKGWYDGISIAFAVLLVIVVTATSDYRQSLQFQNLNEEKRNIRLEVTRDGRRVEISIYDIVVGDVIPLNIGDQVPADGVLVAGHSLAVDESSMTGESKIVQKNSTKHPFLMSGCKVADGNGTMLVTGVGVNTEWGLLMASVSEDNGGETPLQVRLNGVATFIGIVGLTVAGVVLFVLVVRYFTGHTKNEQGGPQFIGGKTKFEHVLDDLVEIFTVAVTIVVVAVPEGLPLAVTLTLAYSMRKMMADKALVRRLSACETMGSATTICSDKTGTLTLNEMTVVECYAGLQKMDSPDSSSKLPSAFTSILVEGIAHNTTGSVFRSESGEIQVSGSPTERAILNWAIKLGMDFDALKSESSAVQFFPFNSEKKRGGVAVKSPDSSVHIHWKGAAEIVLGSCTHYMDESESFVDMSEDKMGGLKDAIDDMAARSLRCVAIAFRTFEADKIPTDEEQLSRWELPEDDLILLAIVGIKDPCRPGVKNSVLLCQQAGVKVRMVTGDNIQTAKAIALECGILASDSDASEPNLIEGKVFRSYSEEERDRICEEISVMGRSSPNDKLLLVQSLKRRGHVVAVTGDGTNDAPALHEADIGLAMGIQGTEVAKEKSDIIILDDNFESVVKVVRWGRSVYANIQKFIQFQLTVNVAALVINVVAAISAGEVPLTAVQLLWVNLIMDTLGALALATEPPTDHLMDRAPVGRREPLITNIMWRNLFIQAMYQVTVLLILNFRGISILHLKSKPNAERVKNTVIFNAFVICQVFNEFNARKPDEINIFRGVLRNHLFVGIISITIVLQVVIVEFLGTFASTTKLDWEMWLVCIGIGSISWPLAVIGKLIPVPETPVSQYFRINRWRRNSSG
Consider B4, for which the binding entry is “binds”.
